According to doi:10.1101/2023.10.26.562393:
Substitutions are numbered along the chain they refer to. Names and notes keep the numbering of the source. Like-named read-outs stand apart in the source and are kept apart here. These are yes or no findings as the source states them, for the method shown. Binding seen in cells or lysates may run through a third protein. Some binding calls cover weakened binding; strength is not graded here. For some assays here: Sequences can lack the tags named with a protein. Blank lines part the entries; values can stand above or below the molecule they belong to.

Amino acid sequences for entries named in this document (tags omitted). A change or cut given only in a name is not applied to a line headed by its entry.
UniProt Q9UQ84, whole entry: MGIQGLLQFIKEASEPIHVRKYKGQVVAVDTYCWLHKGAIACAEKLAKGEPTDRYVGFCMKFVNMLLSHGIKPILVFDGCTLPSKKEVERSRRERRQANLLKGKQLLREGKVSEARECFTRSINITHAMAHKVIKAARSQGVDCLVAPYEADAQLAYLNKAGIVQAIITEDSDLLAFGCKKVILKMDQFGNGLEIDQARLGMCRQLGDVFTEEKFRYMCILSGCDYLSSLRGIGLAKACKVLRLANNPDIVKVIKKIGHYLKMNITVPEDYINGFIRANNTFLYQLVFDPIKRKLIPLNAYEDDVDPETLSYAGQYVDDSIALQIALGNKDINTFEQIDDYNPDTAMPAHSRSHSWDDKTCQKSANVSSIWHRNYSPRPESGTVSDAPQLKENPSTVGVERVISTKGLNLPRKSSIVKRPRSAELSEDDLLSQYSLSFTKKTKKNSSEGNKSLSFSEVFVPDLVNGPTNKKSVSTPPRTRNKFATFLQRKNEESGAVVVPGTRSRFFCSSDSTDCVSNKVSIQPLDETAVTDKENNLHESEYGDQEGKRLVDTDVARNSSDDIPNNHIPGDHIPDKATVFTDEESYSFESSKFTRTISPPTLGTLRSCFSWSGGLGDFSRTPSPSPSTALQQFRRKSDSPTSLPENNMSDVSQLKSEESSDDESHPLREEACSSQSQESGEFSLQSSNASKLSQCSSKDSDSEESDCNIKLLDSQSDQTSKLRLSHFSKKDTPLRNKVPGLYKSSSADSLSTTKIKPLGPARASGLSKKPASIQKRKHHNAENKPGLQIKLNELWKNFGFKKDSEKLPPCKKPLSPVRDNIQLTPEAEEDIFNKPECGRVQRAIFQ
UniProt P63208, whole entry: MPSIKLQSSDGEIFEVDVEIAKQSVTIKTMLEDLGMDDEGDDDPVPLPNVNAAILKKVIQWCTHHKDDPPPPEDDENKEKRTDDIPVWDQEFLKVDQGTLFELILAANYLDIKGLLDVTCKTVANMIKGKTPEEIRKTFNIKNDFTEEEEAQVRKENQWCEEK

Experiments:
GFP-cyclin F wild type [1] = biological target: T1, GFP-cyclin F wild type (UniProt P41002); test: co-IP
T1 sequence: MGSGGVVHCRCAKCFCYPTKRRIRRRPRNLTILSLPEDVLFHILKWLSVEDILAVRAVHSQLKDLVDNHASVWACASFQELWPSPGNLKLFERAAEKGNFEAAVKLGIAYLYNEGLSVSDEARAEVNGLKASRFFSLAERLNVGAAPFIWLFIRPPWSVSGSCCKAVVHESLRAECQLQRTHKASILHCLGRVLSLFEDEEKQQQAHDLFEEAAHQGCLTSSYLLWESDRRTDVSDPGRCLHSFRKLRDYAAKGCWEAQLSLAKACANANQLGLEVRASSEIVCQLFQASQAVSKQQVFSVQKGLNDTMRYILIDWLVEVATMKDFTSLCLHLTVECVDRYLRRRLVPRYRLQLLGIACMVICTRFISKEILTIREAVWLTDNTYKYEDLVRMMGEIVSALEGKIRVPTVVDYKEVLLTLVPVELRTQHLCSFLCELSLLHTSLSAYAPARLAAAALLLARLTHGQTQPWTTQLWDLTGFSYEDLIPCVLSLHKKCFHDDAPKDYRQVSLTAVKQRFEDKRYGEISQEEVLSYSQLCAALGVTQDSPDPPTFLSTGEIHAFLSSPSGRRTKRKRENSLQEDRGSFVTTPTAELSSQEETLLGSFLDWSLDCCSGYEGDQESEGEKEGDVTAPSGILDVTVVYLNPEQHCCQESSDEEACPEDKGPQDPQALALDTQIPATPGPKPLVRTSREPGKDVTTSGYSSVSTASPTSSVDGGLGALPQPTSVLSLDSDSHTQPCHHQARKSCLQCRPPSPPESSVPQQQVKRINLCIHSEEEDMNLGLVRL

GFP-cyclin F wild type [2] = biological target: T1, GFP-cyclin F wild type; test: co-IP; remark: listed apart in the source
[3] = biological target: T2, biotin-tagged EXO1 peptide encompassing the last 15 amino acid residues; test: pull-down
T2 sequence (peptide, biotin (biotin-tagged; end not stated)): FNKPECGRVQRAIFQ

HA-EXO1 WT = HA-EXO1 WT (UniProt Q9UQ84); test: co-IP
Flag-EXO1 = Flag-EXO1 (UniProt Q9UQ84); test: co-IP

binding (GFP-cyclin F wild type [1]): binds
Molecule: endogenous EXO1 (HEK293T) (from UniProt Q9UQ84 1-846)

binding (GFP-cyclin F wild type [1]): binds
Molecule: SKP1 (HEK293T) (from UniProt P63208 1-163)

binding (GFP-cyclin F wild type [2]): binds
B1: NEK9 (HEK293T) (protein, UniProt Q8TD19 1-979)
chain: MSVLGEYERHCDSINSDFGSESGGCGDSSPGPSASQGPRAGGGAAEQEELHYIPIRVLGRGAFGEATLYRRTEDDSLVVWKEVDLTRLSEKERRDALNEIVILALLQHDNIIAYYNHFMDNTTLLIELEYCNGGNLYDKILRQKDKLFEEEMVVWYLFQIVSAVSCIHKAGILHRDIKTLNIFLTKANLIKLGDYGLAKKLNSEYSMAETLVGTPYYMSPELCQGVKYNFKSDIWAVGCVIFELLTLKRTFDATNPLNLCVKIVQGIRAMEVDSSQYSLELIQMVHSCLDQDPEQRPTADELLDRPLLRKRRREMEEKVTLLNAPTKRPRSSTVTEAPIAVVTSRTSEVYVWGGGKSTPQKLDVIKSGCSARQVCAGNTHFAVVTVEKELYTWVNMQGGTKLHGQLGHGDKASYRQPKHVEKLQGKAIRQVSCGDDFTVCVTDEGQLYAFGSDYYGCMGVDKVAGPEVLEPMQLNFFLSNPVEQVSCGDNHVVVLTRNKEVYSWGCGEYGRLGLDSEEDYYTPQKVDVPKALIIVAVQCGCDGTFLLTQSGKVLACGLNEFNKLGLNQCMSGIINHEAYHEVPYTTSFTLAKQLSFYKIRTIAPGKTHTAAIDERGRLLTFGCNKCGQLGVGNYKKRLGINLLGGPLGGKQVIRVSCGDEFTIAATDDNHIFAWGNGGNGRLAMTPTERPHGSDICTSWPRPIFGSLHHVPDLSCRGWHTILIVEKVLNSKTIRSNSSGLSIGTVFQSSSPGGGGGGGGGEEEDSQQESETPDPSGGFRGTMEADRGMEGLISPTEAMGNSNGASSSCPGWLRKELENAEFIPMPDSPSPLSAAFSESEKDTLPYEELQGLKVASEAPLEHKPQVEASSPRLNPAVTCAGKGTPLTPPACACSSLQVEVERLQGLVLKCLAEQQKLQQENLQIFTQLQKLNKKLEGGQQVGMHSKGTQTAKEEMEMDPKPDLDSDSWCLLGTDSCRPSL

binding [3]: binds
B2: cyclin F from cell lysates (peptide pull-down) (protein, UniProt P41002 1-786)
chain: T1 sequence

binding (HA-EXO1 WT): binds
B3: cyclin F (LN229) (protein, UniProt P41002 1-786)
chain: T1 sequence

binding (Flag-EXO1): binds
B4: GFP-cyclin F wild type (protein, UniProt P41002 1-786)
chain: T1 sequence

binding (Flag-EXO1): no binding
B5: GFP-cyclin F M309A (protein, UniProt P41002 1-786)
chain: T1 sequence with M309A

binding (GFP-cyclin F wild type [2]): binds
B6: RRM2 (HEK293T) (protein, UniProt P31350 1-389)
chain: MLSLRVPLAPITDPQQLQLSPLKGLSLVDKENTPPALSGTRVLASKTARRIFQEPTEPKTKAAAPGVEDEPLLRENPRRFVIFPIEYHDIWQMYKKAEASFWTAEEVDLSKDIQHWESLKPEERYFISHVLAFFAASDGIVNENLVERFSQEVQITEARCFYGFQIAMENIHSEMYSLLIDTYIKDPKEREFLFNAIETMPCVKKKADWALRWIGDKEATYGERVVAFAAVEGIFFSGSFASIFWLKKRGLMPGLTFSNELISRDEGLHCDFACLMFKHLVHKPSEERVREIIINAVRIEQEFLTEALPVKLIGMNCTLMKQYIEFVADRLMLELGFSKVFRVENPFDFMENISLEGKTNFFEKRVGEYQRMGVMSSPTENSFTLDADF
